In PubChem BioAssay AID485349 (National Center for Advancing Translational Sciences (NCATS), 2010):
The whole screen tested about 320,000 compounds, of which about 620 (0.19%) were called active. This list was built around the results that the source calls inconclusive (neither active nor inactive); the mix of calls is not that of the screen. The call rests on the fitted dose curve; in most records, active means well fitted activation curve with a large enough effect; inconclusive means small, poorly fitted or top-dose-only effect; inactive means no such curve, though single readings can be large or run the other way. A potency beside an inconclusive call is a rough fit, not a confirmed value.
Potency means the concentration at half of the fitted maximal effect.

Experiment: qHTS Assay for Identifying a Potential Treatment of Ataxia-Telangiectasia; further: nearly all actives have a fitted effect of over 45% in size; on activation: % of control where 0% means no effect
Conditions: […] A-T fibroblasts, KAP-1 phosphorylation AlphaLISA; series mostly up to 57.5 µM
Description: NIH Chemical Genomics Center [NCGC] NIH Molecular Libraries Probe Centers Network [MLPCN] MLPCN Grant: MH089030-01 Assay Submitter (PI): Wei Zheng and Yosef Shiloh Ataxia-telangiectasia (A-T) is a devastating and progressive disease for which, there is no cure. Although A-T is a multisystem disease, it is stereotyped characterized by its neurological symptoms such as truncal ataxia, due to cerebellar cortical degeneration of the Purkinje and granule cells. Other symptoms of A-T are telangiectasias (dilated blood vessels), primary immunodeficiency, marked sensitivity to ionizing radiation (IR), chromosomal instability and predisposition to cancer. The underlying genetic cause of A-T is null mutations in the ATM (A-T mutated) gene. ATM is a nuclear serine/threonine kinase that functions as a master regulator of the cellular responses to double strand breaks (DSBs) in the DNA. Upon activation by DSBs, ATM phosphorylates a plethora of down stream targets, including KAP-1 on […]. KAP-1 phosphorylation occurs shortly in response to DSBs and mediates global chromatin relaxation, which facilitates DSB repair. To screen for small molecules that will compensate for the loss of ATM in cells derived from A-T patients, we monitored KAP-1 phosphorylation as a readout for ATM-like activity using an AlphaLISA assay.
qHTS Assay Protocol: Step,Parameter,Value,Description 1. Cell Plating, 3 ul, 500 cells/well in OPTI-MEM, 1% FBS, 1% Pen/Strep 2. Incubation, 16-24 hr, 37C, 5% CO2, 95% humidity 3. Library compounds, 23 nl, 76.7 - 0.61uM dilution series final concentration 4. Incubation, 60 min, 37C, 5% CO2, 95% humidity 5. Reagent, 1 ul, 1600 ng/ml NCS in PBS + 0.05% BSA + 0.005% Tween 20 6. Incubation, 30 min, 37C, 5% CO2, 95% humidity 7. Reagent, 1 ul, Premixed detection reagents and lysis buffer 8. Reagent, 1 ul, 0.6% Antifoam A 9. Incubation, 6 hr, 25C, 95% humidity 10. Readout, EnVision, EnVision plate reader. AlphaScreen 1536-well protocol Cells were plated using medium-binding white solid-bottom tissue culture treated Kalypsys plates. Multidrop dispense of 3 uL of […] (hTERT immortalized A-T patient fibroblast cells). Detection reagent and lysis buffer was 3.75nM Rab-a-pKAP1 antibody bound to 75 ng/ul AlphaScreen SA donor bead, 3.75 nM Biot-M-a-KAP1 antibody bound to AlphaLISA protein A acceptor bead, 0.5x protease inhibitor cocktail and 0.25x PerkinElmer lysis buffer. EnVision protocol for 1536-well AlphaScreen read (30ms excitation, 100ms read), about 10 min/plate.
In the case of CC(=O)NC1CC2CCC(C1)N2 (stereo not given), the Potency is reported as inconclusive: 25.1 µM [activator, single point] [neocarzinostatin DNA damage 30 min before lysis]. In the case of CC(C)CNC(=O)c1c(N)n(Cc2ccc3c(c2)OCO3)c2nc3ccccc3nc12, the Potency is reported as inconclusive: 25.1 µM [activator, partial curve] [neocarzinostatin DNA damage 30 min before lysis]. In the case of CC(=O)OC(C)(C)/C=C/C(=O)[C@](C)(O)[C@H]1[C@H](O)C[C@@]2(C)[C@@H]3CC=C4[C@H](C[C@H](O)C(=O)C4(C)C)[C@]3(C)C(=O)C[C@]12C, the Potency is reported as inconclusive: 20 µM [activator, partial curve]. For CC(C)[C@H]1C(=O)O[C@H](C(C)C)C(=O)N(C)[C@@H](C(C)C)C(=O)O[C@H](C(C)C)C(=O)N(C)[C@@H](C(C)C)C(=O)O[C@H](C(C)C)C(=O)N1C, the Potency was inconclusive: 31.6 µM [activator, partial curve]. With C/C1=C\[C@@H](C)C/C=C/[C@H]2[C@@H]3O[C@]3(C)[C@@H](C)[C@H]3[C@H](Cc4c[nH]c5ccccc45)NC(=O)[C@]32C(=O)/C=C/C(=O)[C@@H]1O the Potency was active: 39.8 µM. With COc1ccccc1CNCC(=O)Nc1cc(S(=O)(=O)N2CCCCC2)ccc1C the Potency was inconclusive: 25.1 µM [activator, partial curve] [neocarzinostatin DNA damage 30 min before lysis]. In the case of CCOP(=O)(OCC)/C(C#N)=C/c1ccc(-c2ccc(F)cc2F)o1, the Potency is reported as inconclusive: 39.8 µM [activator, single point] [neocarzinostatin DNA damage 30 min before lysis]. For O=c1[nH]c(CN2CC=C(c3ccccc3)CC2)nc2scc(-c3ccccc3)c12, the Potency was inconclusive: 355 nM [activator, full curve, poor fit] [neocarzinostatin DNA damage 30 min before lysis]. In the case of CCC(C)NC(=O)c1c(N)n(Cc2ccc3c(c2)OCO3)c2nc3ccccc3nc12 (stereo not given), the Potency is reported as inconclusive: 39.8 µM [activator, partial curve, poor fit]. In the case of CC(C)OCCCNC(=O)c1c(N)n(CC2CCCO2)c2nc3ccccc3nc12 (stereo not given), the Potency is reported as inconclusive: 28.2 µM [activator, partial curve]. In the case of N#CC1=C(N)Oc2c(c(=O)oc3ccccc23)C1c1ccc(OC(=O)N2CCOCC2)cc1 (stereo not given), the Potency is reported as inconclusive: 12.6 µM [activator, partial curve]. For CCCCSP1(=S)NCCCN1, the Potency was inconclusive: 22.4 µM [activator, single point] [neocarzinostatin DNA damage 30 min before lysis]. In the case of O=[N+]([O-])c1cccc(O)c1, the Potency is reported as “inactive”. With Ic1ccccc1CN[C@@H]1C2CCN(CC2)[C@@H]1C(c1ccccc1)c1ccccc1 the Potency was inconclusive: 25.1 µM [activator, partial curve]. With COc1cc2c(cc1OC)-c1c(OC)c(OC)c(OC)c3ccnc(c13)C2=O the Potency was inconclusive: 31.6 µM [activator, single point]. With C[C@]12CCC3[C@@H](CC[C@@H]4C[C@H](O)CC[C@]34C)[C@@H]1CCC2=O (stereo not given in full) the Potency was “inactive”. In the case of CC(C)=CCc1c(O)cc2c(c1O)C(=O)CC(c1ccc(O)cc1)O2 (stereo not given), the Potency is reported as inconclusive: 1 µM [activator, partial curve]. In the case of CCN1CC2C3CCC(C)(O3)C2C1 (stereo not given), the Potency is reported as inconclusive: 0.631 µM [activator, partial curve, poor fit]. In the case of CN1C(=O)C(=Cc2cn(CC(=O)N3CCCC3)c3ccccc23)C(=O)N(C)C1=O, the Potency is reported as “inactive”. With CC1(C)C[C@H]2C=C(C=O)[C@]3(C=O)C[C@]3(C)[C@H]2C1 the Potency was active: 3.55 µM. In the case of Cc1ccc(N=Nc2cc(C)ccc2N)cc1, the Potency is reported as inconclusive: 39.8 µM [activator, single point] [neocarzinostatin DNA damage 30 min before lysis]. With Brc1ccc2[nH]cc(/C=N/N3CCCCC3)c2c1 the Potency was inconclusive: 31.6 µM [activator, single point] [neocarzinostatin DNA damage 30 min before lysis]. In the case of BrCC1C[n+]2c(SCc3ccccc3)nc3sc4c(c3c2O1)CCCC4 (stereo not given), the Potency is reported as active: 39.8 µM. In the case of CN1C(=O)NC(=O)/C(=C/c2ccc([N+](=O)[O-])s2)C1=O, the Potency is reported as inconclusive: 2.24 µM [activator, full curve, poor fit]. With CC1(C)CN=C(Nc2nc3ccccc3s2)S1 the Potency was “inactive”. With Nc1c(C(=O)NCC2CCCO2)c2nc3ccccc3nc2n1Cc1ccco1 (stereo not given) the Potency was active: 20 µM. With CN1CCN(c2ccc([N+](=O)[O-])c3no[n+]([O-])c23)CC1 the Potency was active: 15.8 µM. In the case of O=C(N/N=C/c1c(O)n(Cc2ccccc2)c(=O)[nH]c1=O)c1ccccc1O, the Potency is reported as “inactive”. In the case of CC(C)CCn1c(N)c(C(=O)NCc2cccs2)c2nc3ccccc3nc21, the Potency is reported as active: 28.2 µM [neocarzinostatin DNA damage 30 min before lysis]. In the case of CN1C[C@H](C(=O)N[C@]2(C)O[C@@]3(O)[C@@H]4CCCN4C(=O)[C@H](Cc4ccccc4)N3C2=O)CC2c3cccc4[nH]cc(c34)C[C@H]21 (stereo not given in full), the Potency is reported as inconclusive: 35.5 µM [activator, partial curve] [neocarzinostatin DNA damage 30 min before lysis]. In the case of O=C(O)C1C(C(=O)O)C2(Cl)C(Cl)=C(Cl)C1(Cl)C2(Cl)Cl (stereo not given), the Potency is reported as “inactive”. With CC(C)Nc1ccc(Nc2ccccc2)cc1 the Potency was inconclusive: 25.1 µM [activator, single point] [neocarzinostatin DNA damage 30 min before lysis]. With O=C(NCc1cccnc1)C(Cl)(Cl)Cl the Potency was “inactive”. With CCCCNC(=O)c1c(N)n(CCCOC)c2nc3ccccc3nc12 the Potency was inconclusive: 39.8 µM [activator, single point] [neocarzinostatin DNA damage 30 min before lysis]. In the case of ClC1=C(Cl)C2(Cl)C3C(Cl)C=CC3C1(Cl)C2(Cl)Cl (stereo not given), the Potency is reported as active: 39.8 µM [neocarzinostatin DNA damage 30 min before lysis].
